The structures given here were assigned with low confidence; some may be wrong.

By UniProt entry, the sequences of proteins in these tests, tags left out. Residues count along the entry.
UniProt P09619, 33-1106 limits assumed: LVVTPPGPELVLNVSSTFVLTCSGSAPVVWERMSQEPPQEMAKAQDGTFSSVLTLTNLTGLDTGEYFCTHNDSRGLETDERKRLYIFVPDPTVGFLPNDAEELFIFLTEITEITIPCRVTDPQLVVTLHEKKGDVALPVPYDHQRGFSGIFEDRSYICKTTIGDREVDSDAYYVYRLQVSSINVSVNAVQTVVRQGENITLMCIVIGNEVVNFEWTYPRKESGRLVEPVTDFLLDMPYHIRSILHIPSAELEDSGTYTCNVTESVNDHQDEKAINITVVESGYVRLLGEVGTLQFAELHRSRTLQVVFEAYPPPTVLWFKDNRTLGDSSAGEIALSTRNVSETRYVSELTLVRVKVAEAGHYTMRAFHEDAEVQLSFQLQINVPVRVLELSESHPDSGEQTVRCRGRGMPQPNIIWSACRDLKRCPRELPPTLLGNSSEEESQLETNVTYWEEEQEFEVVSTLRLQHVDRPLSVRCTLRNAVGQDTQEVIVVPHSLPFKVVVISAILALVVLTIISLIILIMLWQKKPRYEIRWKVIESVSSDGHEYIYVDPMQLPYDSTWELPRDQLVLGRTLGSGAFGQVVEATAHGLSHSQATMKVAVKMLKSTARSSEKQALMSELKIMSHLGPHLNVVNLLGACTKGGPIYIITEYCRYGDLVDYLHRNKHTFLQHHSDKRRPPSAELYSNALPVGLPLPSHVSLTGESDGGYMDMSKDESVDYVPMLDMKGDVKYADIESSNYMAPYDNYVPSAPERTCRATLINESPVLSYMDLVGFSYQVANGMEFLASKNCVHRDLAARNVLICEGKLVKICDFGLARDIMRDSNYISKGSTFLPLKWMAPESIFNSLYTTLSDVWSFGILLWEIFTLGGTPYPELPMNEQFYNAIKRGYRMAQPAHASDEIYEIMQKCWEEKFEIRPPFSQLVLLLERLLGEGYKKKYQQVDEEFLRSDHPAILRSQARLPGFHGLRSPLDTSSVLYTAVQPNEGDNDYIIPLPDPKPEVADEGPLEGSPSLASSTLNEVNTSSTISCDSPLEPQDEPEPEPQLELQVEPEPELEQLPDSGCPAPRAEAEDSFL
UniProt P10721, 26-976 limits assumed: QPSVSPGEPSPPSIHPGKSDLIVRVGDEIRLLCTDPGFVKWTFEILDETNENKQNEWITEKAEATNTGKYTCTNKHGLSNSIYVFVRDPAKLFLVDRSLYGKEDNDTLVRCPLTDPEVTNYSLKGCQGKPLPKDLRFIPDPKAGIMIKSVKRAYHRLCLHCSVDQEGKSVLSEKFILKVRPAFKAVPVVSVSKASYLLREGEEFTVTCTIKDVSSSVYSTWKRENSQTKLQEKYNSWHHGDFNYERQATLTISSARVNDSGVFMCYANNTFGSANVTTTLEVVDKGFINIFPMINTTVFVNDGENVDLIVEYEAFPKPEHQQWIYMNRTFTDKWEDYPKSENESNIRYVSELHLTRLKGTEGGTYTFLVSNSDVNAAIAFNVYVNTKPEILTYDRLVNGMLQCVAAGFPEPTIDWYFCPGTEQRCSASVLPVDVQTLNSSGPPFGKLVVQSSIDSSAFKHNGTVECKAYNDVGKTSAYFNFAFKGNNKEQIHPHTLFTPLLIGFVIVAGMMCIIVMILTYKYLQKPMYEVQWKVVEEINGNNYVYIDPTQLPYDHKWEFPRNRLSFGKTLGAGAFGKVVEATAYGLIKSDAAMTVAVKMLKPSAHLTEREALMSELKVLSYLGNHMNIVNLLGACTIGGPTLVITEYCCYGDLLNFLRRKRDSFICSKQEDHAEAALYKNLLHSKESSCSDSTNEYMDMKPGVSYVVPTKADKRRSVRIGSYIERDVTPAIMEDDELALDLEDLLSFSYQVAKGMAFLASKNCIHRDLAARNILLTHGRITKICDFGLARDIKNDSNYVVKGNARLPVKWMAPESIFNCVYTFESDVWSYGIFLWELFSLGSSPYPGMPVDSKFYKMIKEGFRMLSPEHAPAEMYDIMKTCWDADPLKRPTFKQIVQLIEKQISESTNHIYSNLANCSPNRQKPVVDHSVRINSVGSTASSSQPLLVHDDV

The target in one assay is PDGFRβ (Homo sapiens (Human), UniProt P09619). Kind of assay: PDGFRβ kinase activity test (Caliper mobility shift assay). To be noted: read-out: PDGFRβ IC50. The format is biochemical.
Another assay concerns the target c-Kit (Homo sapiens (Human), UniProt P10721). Description: c-Kit kinase activity test (Caliper mobility shift assay). Format: biochemical. To be noted: read-out: c-Kit IC50.

Broadly, the IC50 is the point on the concentration scale where inhibition reaches its midpoint. `Cc1cc(-c2cc(Oc3ccc(NC(=O)N4CCC5(CCC(F)(F)CC5)C4=O)nc3)ccn2)ccn1`: the IC50 at PDGFRβ was 8.44 µM; on c-Kit, 0.0247 µM.

The values are drawn from patent US11591328B2 (XIAMEN BIOTIME BIOTECHNOLOGY CO., LTD., priority 2018, dated 2023).
